The results in this text go back to PubChem BioAssay AID2685 (National Center for Advancing Translational Sciences (NCATS), 2010).

A short description of the assay: qHTS Assay for Lipid Storage Modulators in Drosophila S3 Cells.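 On cell number change: cells counted by Cell Tracker Red CMTPX staining in the red channel.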 Conditions: BODIPY lipid droplet fluorescence, 18-24 h; for cell number change: measured here: cell count max response, cells fed with added oleic acid. The essentials: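 Laser-scanning cytometry quantifies lipid droplet accumulation (500–530 nm total intensity; droplet/cell object ratio) in oleic acid-fed (400 uM added) Drosophila S3 cells treated with a concentration series. 20 uM Triacsin C defined 100% inhibition.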
Background: Quantitative high-throughput screening tests each substance at several concentrations.

Where [1] appears, read: measured here: cell number channel AC50, cells fed with added oleic acid.
The mark [2] stands for this setting: measured here: lipid fluorescence (Fed channel) AC50, cells fed with added oleic acid.

The list shows a part of the results. The main result of the screen is listed elsewhere. These columns were measured beside it and carry no call. The list favours compounds with an active or inconclusive main result. Words in brackets tell the shape of the fitted curve; partial curves, single points and poor fits give uncertain potencies.

One may read the AC50 as the midpoint of the concentration-response curve, whichever way the signal moves. Lower therefore signals activity at low concentration. In the case of `CCOCCn1c(N2CCN(c3ccccc3)CC2)nc2c1c(=O)n(C)c(=O)n2C`, the cell number change worked out at 223%. Moreover, the AC50 under setting [1] was 1.03 µM [rising, partial curve]. The AC50 under setting [2] is 0.146 µM [rising, full curve, poor fit].
Take `COC(=O)c1cccc(NC(=O)COc2cccc([N+](=O)[O-])c2)c1`: the cell number change turned out to be 21.9%. Under setting [1], the AC50 was 0.231 µM [rising, full curve, poor fit]. For the same compound, under setting [2], the AC50 is 0.116 µM [rising, full curve, poor fit].
As to `O=S(=O)(Cc1ccccc1)N1CCN(Cc2ccc(Br)cc2)CC1`, the cell number change was 21.1%.
As for `NC(=O)c1nsc(C(=O)N(Cc2cccnc2)C(C(=O)NC2CCCCC2)c2ccc(F)cc2)c1N` (stereo not drawn), the cell number change was found to be 5.65%. Also, under setting [2], the AC50 was 29.1 µM [rising, single point].
Consider `Cc1nnc(NC(=O)CSc2nc(C(C)C)nc3ccccc23)s1`, for which, under setting [2], the AC50 is 0.00411 µM [rising, full curve, poor fit].
As to `O=C(c1ccc(-n2cncn2)c([N+](=O)[O-])c1)N1CCN(S(=O)(=O)c2ccc(F)c(F)c2)CC1`, the AC50 under setting [1] is 6.51 µM [rising, single point].
Take `CCOCCOCCC(C(=O)O)P(=O)(c1ccccc1)c1ccccc1` (stereo not drawn): the cell number change worked out at 12.7%. Under setting [2], the concentration at half-maximal activity (AC50) was 6.51 µM [falling, single point].
With `O=C(COC(=O)/C=C/c1ccccc1)Nc1nnc(-c2ccccc2)o1`, the cell number change was -5.12%. Also, under setting [2], the AC50 is 6.51 µM [rising, partial curve, poor fit].
For the compound `COc1cc(-c2nnc(NC(=O)CS(=O)(=O)c3ccc(C)cc3)o2)cc(OC)c1OC`, the cell number change is -21.3%. In addition, the AC50 under setting [2] was 11.6 µM [falling, partial curve].
`Cc1cccc2c(C(=O)N3CCN(C(=O)c4ccco4)CC3)cc(-c3cccc(Br)c3)nc12`: the cell number change was -14.8%. For the same compound, under setting [2], the AC50 is 29.1 µM [falling, single point].
With `Cc1cc(NC(=O)CSc2nc3c(C)ccc(C)c3cc2C#N)no1`, the cell number change was found to be 8.97%.
As for `CCOC(=O)C(C)Oc1cccc2c(=O)n(CC(=O)NCCc3ccccc3)ccc12` (stereo not drawn), the cell number change was 31.7%. The AC50 under setting [1] was 0.146 µM [rising, full curve, poor fit]. Besides, the AC50 under setting [2] was 2.31 µM [rising, partial curve, poor fit].
As for `COc1ccc(NC(=O)COC(=O)c2cc(=O)c3ccccc3o2)cc1OC`, the cell number change is -2.33%.
As to `NC(=S)Nc1ccc2cn[nH]c2c1`, the cell number change is -27.5%. Moreover, the concentration at half-maximal activity (AC50) under setting [1] is 0.82 µM [rising, single point]. Further, the AC50 under setting [2] was 0.00517 µM [falling, full curve, poor fit].
On to `Cc1ccc2cc(CN(CCCN3CCOCC3)C(=O)NC3CCCCC3)c(=O)[nH]c2c1C`, for which the cell number change is 8.97%. The AC50 under setting [1] is 0.326 µM [rising, partial curve, poor fit]. In addition, the AC50 under setting [2] is 23.1 µM [rising, single point].
As to `N#Cc1cc2c(nc1SCc1cccnc1)CCCCC2`, the cell number change was 81.1%. Also, under setting [1], the AC50 was 29.1 µM [rising, single point]. Also, the AC50 under setting [2] is 0.731 µM [rising, full curve].
For `OC(CNCC(c1ccc(Cl)cc1Cl)c1c[nH]c2ccccc12)c1ccccc1` (stereo not drawn), the cell number change was -56.9%. In addition, the AC50 under setting [1] was 20.6 µM [falling, single point]. Further, the AC50 under setting [2] was 32.6 µM [falling, partial curve, poor fit].
For `CCc1cc(C(=O)O)c(NC(=O)C(c2ccccc2)c2ccccc2)s1`, the cell number change was -4.86%. Besides, the AC50 under setting [2] is 29.1 µM [falling, single point].
Consider `O=C(Nc1ccccc1C(F)(F)F)N1CCCC1c1cccnc1` (stereo not drawn), for which the cell number change is -7.94%. Under setting [2], the AC50 was 2.59 µM [falling, single point].
In the case of `NS(=O)(=O)c1cccc(NC(=O)CSc2ccccn2)c1`, the cell number change turned out to be 53.1%. The concentration at half-maximal activity (AC50) under setting [2] was 1.64 µM [falling, partial curve].
In the case of `Cc1ccc(S(=O)(=O)NCC(=O)Nc2cccc([N+](=O)[O-])c2)cc1`, the cell number change amounted to 30.6%. For the same compound, the AC50 under setting [1] was 3.66 µM [rising, full curve, poor fit]. Besides, under setting [2], the AC50 was 29.1 µM [rising, single point].
With `CC(Sc1nnc(Nc2ccccc2F)s1)C(=O)NC1CC1` (stereo not drawn), the cell number change was -2.72%. Moreover, the concentration at half-maximal activity (AC50) under setting [2] is 3.26 µM [falling, full curve].
For `Cc1ccsc1C(=O)Nc1cccc(S(=O)(=O)N(C)C)c1`, the cell number change was found to be 40.6%. Under setting [1], the half-maximal activity concentration (AC50) is 9.2 µM [rising, partial curve, poor fit].
`O=C(C1=C[C@H](c2ccc(Br)cc2)C[C@H](OCCCCO)O1)N1CCN(Cc2ccc3c(c2)OCO3)CC1`: the cell number change was -26.1%.
In the case of `CCOc1ccc(S(=O)(=O)Nc2ccc(C(=O)NCC(c3ccco3)N(C)C)cc2)cc1` (stereo not drawn), the cell number change was -16.3%. In addition, the AC50 under setting [2] was 2.31 µM [falling, partial curve].
Turning to `Cc1ccc(NC(=O)CSc2n[nH]c(-c3ccncc3)n2)c(C)c1`, the cell number change worked out at 17.4%. The AC50 under setting [2] is 6.51 µM [falling, single point].
`CCCCn1c(N)c(N(CCOC)C(=O)COC(=O)Cc2cccc(OC)c2)c(=O)[nH]c1=O`: the cell number change is -18.1%.
As for `COc1ccc(OCC(=O)NNc2c3ccccc3nc3ccccc23)cc1`, the cell number change was -98%. Also, under setting [1], the AC50 is 10.3 µM [falling, partial curve]. For the same compound, under setting [2], the AC50 is 1.64 µM [falling, full curve].
Regarding `O=C(Cc1cn2ccsc2n1)Nc1nc2c(s1)CN(Cc1ccccc1)CC2`, the cell number change amounted to 9.39%. Also, the AC50 under setting [1] is 0.731 µM [rising, partial curve, poor fit]. Further, the AC50 under setting [2] was 6.51 µM [falling, single point].
Consider `O=C(Nc1ccccc1N1CCOCC1)c1ccc(Cl)c(S(=O)(=O)NCc2ccco2)c1`, for which the cell number change is -0.12%. Moreover, the AC50 under setting [2] is 29.1 µM [falling, single point].
`O=C(CC1(O)C(=O)N(C/C=C/c2ccccc2)c2ccccc21)c1ccccn1` (stereo not drawn): the cell number change is -9.05%.
On to `O=C(CCCOc1ccc(Br)cc1)Nc1ccc(S(=O)(=O)N2CCOCC2)cc1`, for which the cell number change was -18.2%. For the same compound, the concentration at half-maximal activity (AC50) under setting [2] is 6.51 µM [rising, single point].
Take `Cc1cc(C)nc(Nc2ccc(O)cc2)n1`: the cell number change came to 20.5%. The half-maximal activity concentration (AC50) under setting [2] is 11.6 µM [rising, partial curve, poor fit].
With `Cc1cccc(NS(=O)(=O)c2ccc(C3CCCCC3)cc2)c1`, the cell number change was -66.5%. Under setting [1], the concentration at half-maximal activity (AC50) is 18.4 µM [falling, single point]. Further, the AC50 under setting [2] was 29.1 µM [falling, single point].
For `CC(C)(C)c1cc(NS(=O)(=O)c2ccc3c(c2)OCCO3)on1`, the cell number change is -30.5%. For the same compound, the AC50 under setting [1] was 14.6 µM [falling, partial curve, poor fit].
As for `O=C(OCC(=O)N1CCN(S(=O)(=O)c2ccc(Cl)cc2)CC1)C1CC1`, the cell number change was -11.7%. Moreover, the AC50 under setting [2] is 2.59 µM [falling, partial curve].
For the compound `CN(C)c1ccc2c(=O)[nH][nH]c(=O)c2c1`, the cell number change is -1.49%. Moreover, under setting [2], the AC50 was 0.00411 µM [rising, full curve, poor fit].
On to `CCCCN1C(=O)c2ccc(C(=O)NCCN3C(=O)S/C(=C\c4cccnc4)C3=O)cc2C1=O`, for which the cell number change turned out to be 8.22%. Further, the AC50 under setting [2] was 16.4 µM [falling, single point].
Regarding `O=C1CN(C(=O)COc2ccccc2Cl)c2ccccc2N1`, the cell number change was -3.48%.
`CCOc1cc(/C=C/C(=O)N(CC)CC(=O)NCc2cccs2)cc(Cl)c1OC`: the cell number change was found to be 62.7%. In addition, the concentration at half-maximal activity (AC50) under setting [1] was 23.1 µM [rising, single point].
In the case of `O=c1cc(-c2ccccc2)oc2ccc(O)cc12`, the cell number change was -5.39%. Besides, under setting [2], the AC50 is 0.00461 µM [falling, full curve, poor fit].
Turning to `Cc1ccc(S(=O)(=O)N(CCC(=O)NCc2ccccc2F)c2ccccc2)cc1`, the cell number change was found to be 1.69%. Under setting [2], the AC50 is 29.1 µM [falling, partial curve, poor fit].
For the compound `COc1ccc(-n2nc(C(=O)NCC(=O)N3CCC(C(N)=O)CC3)c3ccccc3c2=O)cc1OC`, the cell number change worked out at 28.6%. Besides, the AC50 under setting [2] was 0.58 µM [falling, single point].
`Cc1ccc(C)c(N(C(=O)Cc2cccs2)C(C(=O)NC2CCCC2)c2ccc(C)o2)c1` (stereo not drawn): the AC50 under setting [2] is 6.51 µM [falling, single point].
For `Cc1c(=O)n(OCc2cccc(F)c2)c2ccccc2[n+]1[O-]`, the cell number change turned out to be 103%. Under setting [1], the AC50 was 1.03 µM [rising, full curve, poor fit].
With `Cc1ccccc1-c1cc2nc(-c3ccc([N+](=O)[O-])cc3)cc(=O)n2[nH]1`, the cell number change was -8.23%.
As for `CC[n+]1c(C)sc2c(C)cc(C)cc21`, the cell number change is 22.5%. Under setting [2], the AC50 is 29.1 µM [rising, single point].
With `Cc1ccc(CCC(=O)Nc2ccc(C)c(C)c2)o1`, the cell number change is -60.7%. The AC50 under setting [1] was 29.1 µM [falling, single point].
Turning to `CC1Oc2ccccc2N(CC(=O)N(Cc2ccccc2)Cc2ccccn2)C1=O` (stereo not drawn), the AC50 under setting [2] is 0.13 µM [falling, full curve, poor fit].
On to `O=C(O/N=C/c1cccc([N+](=O)[O-])c1)C1CC1`, for which the cell number change was -81.4%. Moreover, under setting [1], the AC50 was 18.4 µM [falling, single point].
As for `CCN(CC)CCCNC(=O)CC1Oc2ccc(C)cc2NC1=O` (stereo not drawn), the cell number change is 4.15%.
`Cc1cccc(C)c1NC(=O)Cn1nnc(C(=O)Nc2ccc(F)cc2F)c1N`: the cell number change was determined as 19.1%. The AC50 under setting [2] is 6.51 µM [rising, single point].
As for `COc1ccc(OC)c(-c2nc(CN3CCN(C(=O)c4ccco4)CC3)c(C)o2)c1`, the cell number change came to 5.9%.
With `O=C(c1ccc2nccnc2c1)N1CCN(Cc2ccc3c(c2)OCO3)CC1`, the cell number change came to 32.9%. Moreover, the AC50 under setting [1] is 6.51 µM [rising, partial curve].
As for `COc1ccc(/C(C)=N/NS(=O)(=O)c2cc(C)ccc2C)c(OC)c1`, the cell number change came out at 54.5%. Under setting [1], the AC50 is 2.91 µM [rising, full curve].
With `CN(c1cccc(NS(=O)(=O)c2cccc([N+](=O)[O-])c2)c1)S(C)(=O)=O`, the cell number change is -21.9%. The AC50 under setting [1] was 2.31 µM [falling, single point].
With `Cc1ccccc1OCc1nc(-c2ccc(NC(=O)c3cccs3)cc2)no1`, the cell number change was -2.39%. For the same compound, the half-maximal activity concentration (AC50) under setting [2] was 3.26 µM [rising, single point].
`O=C(NCc1ccccc1)NS(=O)(=O)c1ccccc1Cl`: the cell number change was -12%. Besides, the half-maximal activity concentration (AC50) under setting [2] is 0.103 µM [falling, full curve, poor fit].
